# The list shows a part of the results. Single values are uncertain, as repeats are few or missing.
# Test system: Geomyces destructans
# Test: growth inhibition relative to DMSO control; higher = stronger growth inhibition
# Conditions: 10 µM; 15 °C; incubation time 10 days
row,SMILES,growth inhibition
1,Cl[C@H]1[C@H](Cl)[C@@H](Cl)[C@@H](Cl)[C@H](Cl)[C@H]1Cl,-8.51%
2,CNC(=O)Oc1cccc2c1OC(C)(C)C2,-8.51%
3,COC(C)(C)CCC[C@H](C)C/C=C/C(C)=C/C(=O)OC(C)C,0.486%
4,C[C@@]12C(=O)OC(=O)[C@]1(C)[C@H]1CC[C@@H]2O1,77.6%
5,CCCC(C)(COC(N)=O)COC(=O)NC(C)C (stereo not drawn),4.61%
6,COc1cc(OC)c(OC)cc1C=O,9.54%
7,C[N+]1(C)CCCC(OC(=O)C(O)(c2ccccc2)c2ccccc2)C1 (stereo not drawn),7.57%
8,CC(=O)O[C@@H]1C[C@H]2C(C)(C)C(=O)C=C[C@]2(C)[C@H]2CC[C@]3(C)C(=CC(=O)O[C@H]3c3ccoc3)[C@@]21C,-8.7%
9,N[C@@H]1C[C@H]1c1ccccc1.N[C@H]1C[C@@H]1c1ccccc1,-10.2%
10,COc1ccc(C(c2ccc(OC)cc2)C(Cl)(Cl)Cl)cc1,-10.3%
11,COC(=O)NC(=S)Nc1ccccc1NC(=S)NC(=O)OC,-19%
12,CCOP(=S)(OCC)Oc1ccc2c(C)c(Cl)c(=O)oc2c1,-17%
13,CC(C)=CCC[C@]1(C)C=Cc2c(O)c3c(c(CC=C(C)C)c2O1)O[C@]12C(=C[C@@H]4C[C@H]1C(C)(C)O[C@@]2(C/C=C(/C)C(N)=O)C4=O)C3=O,0.416%
14,FC(F)(F)c1cccc(N2CCNCC2)c1,-10.1%
15,CC1CC(Cl)CCC1C(=O)OC(C)(C)C (stereo not drawn),-8.7%
16,COc1ccccc1N1CCNCC1,-33.5%
17,CCCCCCCCCCCCCCCC[n+]1ccccc1,90.7%
18,C=CCC1(C(C)CCC)C(=O)NC(=S)NC1=O (stereo not drawn),8.31%
19,c1ccc2c3c([nH]c2c1)CNCC3,-6.72%
20,c1ccc(/N=N/c2ccccc2)cc1,7.04%
21,CC(=O)O[C@@H]1CC[C@@]2(C)[C@@H](CC[C@@H]3[C@@H]2CC[C@]2(C)C(=O)CC[C@@H]32)C1,-23.4%

row,SMILES,growth inhibition
1,CC[S+]([O-])CCSP(=O)(OC)OC (stereo not drawn),-5.31%
2,CCOP(=S)(OCC)Oc1nc(Cl)c(Cl)cc1Cl,-6.37%
3,O=P1(N(CCCl)CCCl)NCCCO1 (stereo not drawn),-6.55%
4,c1ccc2c(c1)sc1ccccc12,-5.92%
5,C=C1C2CC[C@@]3(C)[C@H](c4ccoc4)OC(=O)C[C@]13O[C@H]1CC(=O)C(C)(C)[C@H](C(OC(C)=O)C(=O)OC)[C@@]21C (stereo partly drawn),-8.54%
6,CN1C(=O)CCS(=O)(=O)C1c1ccc(Cl)cc1 (stereo not drawn),-6.39%
7,CC(C)[C@]12O[C@H]1[C@@H]1O[C@@]13[C@@]1(C)CCC4=C(COC4=O)[C@@H]1C[C@@H]1O[C@@]13C2=O,-20.4%
8,CC(N)C(O)c1ccc(O)c(O)c1 (stereo not drawn),4.73%
9,CC(=O)NC1CCSC1=O (stereo not drawn),-3.47%
10,CNC(=O)Oc1ccccc1OC(C)C,-2.26%
11,COc1cc([C@@H]2c3cc4c(cc3[C@H](OC(C)=O)[C@H]3COC(=O)[C@@H]23)OCO4)cc(OC)c1OC,-7.36%
12,O=C(O)Cc1cnc[nH]1,-6.28%
13,COc1cc2c(c(OC)c1OC)-c1ccc(OC)c(=O)cc1[C@@H](NC(C)=O)CC2,-4.67%
14,N#C[C@H](O[C@@H]1O[C@H](CO[C@@H]2O[C@H](CO)[C@@H](O)[C@H](O)[C@H]2O)[C@@H](O)[C@H](O)[C@H]1O)c1ccccc1,-4.15%
15,CN1C(=O)CN=C(c2ccccc2)c2cc(Cl)ccc21,-10.6%
16,C[C@]12CC[C@H](O)CC1=CC[C@@H]1[C@@H]2CC[C@]2(C)C(=O)CC[C@@H]12,-8.86%
17,CC1C=CC=CCCC=CC=CC=CC=CC(OC2OC(C)C(O)C(N)C2O)CC2OC(O)(CC(O)C(O)CCC(O)CC(O)CC(O)CC(=O)OC(C)C(C)C1O)CC(O)C2C(=O)O (stereo not drawn),-9.03%
18,CC(=O)O[C@H]1CC[C@@]2(C)[C@H](CC[C@@H]3[C@@H]2CC[C@]2(C)[C@@H](C4=CC(=O)OC4)[C@@H](OC(C)=O)C[C@]32O)C1,-2.7%
19,CC[N+]1(C)CCCC(OC(=O)C(O)(c2ccccc2)c2ccccc2)C1 (stereo not drawn),-3.5%
20,CC1=C2C(=CO[C@H](C)[C@H]2C)C(O)=C(C(=O)O)C1=O,-36.6%
21,CC(C)Nc1nc(Cl)nc(NC(C)C)n1,-2.1%

# Copied from above for reference:
row,SMILES,growth inhibition
19,CC[N+]1(C)CCCC(OC(=O)C(O)(c2ccccc2)c2ccccc2)C1 (stereo not drawn),-3.5%
20,CC1=C2C(=CO[C@H](C)[C@H]2C)C(O)=C(C(=O)O)C1=O,-36.6%
21,CC(C)Nc1nc(Cl)nc(NC(C)C)n1,-2.1%

# Next entries:

row,SMILES,growth inhibition
1,N#Cc1c(Cl)c(Cl)c(Cl)c(C#N)c1Cl,-2.08%
2,O=S1OCC2C(CO1)C1(Cl)C(Cl)=C(Cl)C2(Cl)C1(Cl)Cl (stereo not drawn),7.5%
3,CCCCSP(=O)(SCCCC)SCCCC,-5%
4,C[C@]1(C(=O)O)CCC[C@]2(C)c3cc(O)ccc3CC[C@@H]12,-24.1%
5,Cc1[nH]c2ccccc2c1CN(C)C,-2.99%
6,Cc1nccc2c1[nH]c1cc(O)ccc12,-4.09%
7,CC(C)c1cc2c(c(O)c1O)[C@@]1(C(=O)O)CCCC(C)(C)[C@@H]1CC2,0.0983%
8,CCCCCCC(C)OC(=O)COc1ccc(Cl)cc1Cl (stereo not drawn),-2.56%
9,Oc1ccc2c3c1O[C@H]1[C@@H](O)CC[C@@]4(O)[C@@H](C2)N(CC2CCC2)CC[C@]314,-11.1%
10,O=C(O)CC[N+](=O)[O-] [BOVINOCIDIN (3-nitropropionic acid)],-4.17%
11,CC(=O)O[C@@H]1CC2C(C)(C)[C@H](O)C=C[C@]2(C)C2CC[C@]3(C)C(=CC(=O)O[C@H]3c3ccoc3)[C@@]21C (stereo partly drawn) [3-alpha-HYDROXYDEOXYGEDININ],-8.54%
12,CO[C@@H]1C[C@H](O[C@H]2CC[C@]3(C)[C@H]4CC[C@]5(C)[C@@H](C6=CC(=O)OC6)CC[C@]5(O)[C@@H]4CC[C@]3(O)C2)O[C@H](C)[C@H]1O,-17.1%
13,CN1C[C@H](CNC(=O)OCc2ccccc2)C[C@@H]2c3cccc4c3c(cn4C)C[C@H]21,17.4%
14,O=C(O)CF,-2.67%
15,O=C(CCCN1CCC2(CC1)C(=O)NCN2c1ccccc1)c1ccc(F)cc1,-10.2%
16,"CC1(C)C(=O)[C@@H]2O[C@@H]2[C@@]2(C)C1C[C@@H](O)[C@]1(C)C2CC[C@@]2(C)[C@H](c3ccoc3)OC(=O)C3OC321 (stereo partly drawn) [1,2alpha-EPOXYDEACETOXYDIHYDROGEDUNIN]",-4.12%
17,O=[N+]([O-])O[C@H]1CO[C@H]2[C@@H]1OC[C@H]2O[N+](=O)[O-],-10.9%
18,COc1cc2ccc(=O)oc2c2ccoc12,4.01%
19,O=c1cccc2n1C[C@@H]1CNC[C@H]2C1,15.3%
20,CCC(=O)Nc1ccc(Cl)c(Cl)c1,1.25%
21,CC[C@@H](C)C(=O)O[C@H]1[C@H](O)[C@H]2[C@@H](CN3C[C@@H](C)CC[C@H]3[C@@]2(C)O)[C@@H]2C[C@]34O[C@]5(O)[C@@H](OC(=O)[C@@](C)(O)CC)CC[C@@]3(C)[C@@H]5[C@@H](OC(C)=O)[C@@H](OC(C)=O)[C@H]4[C@@]21O,-9.05%
